Here are results for one compound from PubChem BioAssay AID588742 (Southern Research Specialized Biocontainment Screening …, 2011).

In general, viability refers to the share of living cells, or the viability signal relative to a control.

Only a part is listed here, and it is no random draw. Entries with a potency or affinity are not part of this list. The source made the active and inactive calls. No rule for the calls is given here.

The assay can be described thus: Vero cell cytotoxicity, cytotoxicity control for flavivirus capping enzyme inhibitors (AID 588742). To be noted: Vero cells viability, cytotoxicity counter-screen; at 40 µM (top of the series). A general note: A counterscreen serves to expose hits that act by an unwanted route or on another target.
Take `O=C1NN(c2ccccc2)C(=O)/C1=C/c1ccc(Sc2ccc(Cl)cc2)o1`: the viability is inactive: 95.4%.
